No constants are given. Whether binding was seen depends on the method and setting. In cells and extracts the contact can be indirect. Some results given as binding are weak or reduced against the parent protein; the word gives no strength. Blank lines part the entries; values can stand above or below the substance they belong to.
Tests used:
[1] = molecular target: VC-AbdB (Drosophila melanogaster) (UniProt P09087); experiment: split reporter; Venus BiFC: VC-Hox and VN-TF co-expressed in live Drosophila embryos with the corresponding Hox-Gal4 driver (abdA-Gal4 for AbdA); epidermis, stage 10-12, quantified at stage 10; affected if equal or lower than 50% of wild type, stronger if 120% or more
[2] = molecular target: VC-Scr (Drosophila melanogaster) (UniProt P09077); experiment: as above
[3] = molecular target: VC-Ubx (Drosophila melanogaster) (UniProt P83949); experiment: as above
[4] = molecular target: AbdA-HA (Drosophila melanogaster) (UniProt P29555); experiment: co-IP; S2 cells transfected with AbdA-HA, actin-Gal4 and the VN-cofactor; nuclear extracts; ip with anti-HA, VN-cofactor revealed with anti-GFP
[5] = molecular target: VC-AbdA (Drosophila melanogaster) (UniProt P29555); experiment: split reporter; Venus BiFC: VC-Hox and VN-TF co-expressed in live Drosophila embryos with the corresponding Hox-Gal4 driver (abdA-Gal4 for AbdA); epidermis, stage 10-12, quantified at stage 10; affected if equal or lower than 50% of wild type, stronger if 120% or more
[6] = molecular target: VC-Antp (Drosophila melanogaster) (UniProt P02833); experiment: as above
[7] = molecular target: HoxB8 (VC fusion) (mouse) (UniProt P09632); experiment: as above

Protein sequences, listed by entry. Tags and fused reporters are not part of them.
UniProt P09077: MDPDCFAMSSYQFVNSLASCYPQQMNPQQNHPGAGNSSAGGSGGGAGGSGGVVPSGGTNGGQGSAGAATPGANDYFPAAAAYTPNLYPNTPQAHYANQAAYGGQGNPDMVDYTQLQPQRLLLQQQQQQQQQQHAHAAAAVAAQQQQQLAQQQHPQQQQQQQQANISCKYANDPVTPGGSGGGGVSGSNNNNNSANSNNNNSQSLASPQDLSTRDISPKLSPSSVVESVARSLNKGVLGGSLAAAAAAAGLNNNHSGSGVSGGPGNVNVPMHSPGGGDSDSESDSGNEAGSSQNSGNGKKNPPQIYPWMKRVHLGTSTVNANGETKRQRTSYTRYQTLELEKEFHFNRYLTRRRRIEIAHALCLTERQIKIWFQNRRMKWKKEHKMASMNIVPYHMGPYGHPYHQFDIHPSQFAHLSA
UniProt P83949: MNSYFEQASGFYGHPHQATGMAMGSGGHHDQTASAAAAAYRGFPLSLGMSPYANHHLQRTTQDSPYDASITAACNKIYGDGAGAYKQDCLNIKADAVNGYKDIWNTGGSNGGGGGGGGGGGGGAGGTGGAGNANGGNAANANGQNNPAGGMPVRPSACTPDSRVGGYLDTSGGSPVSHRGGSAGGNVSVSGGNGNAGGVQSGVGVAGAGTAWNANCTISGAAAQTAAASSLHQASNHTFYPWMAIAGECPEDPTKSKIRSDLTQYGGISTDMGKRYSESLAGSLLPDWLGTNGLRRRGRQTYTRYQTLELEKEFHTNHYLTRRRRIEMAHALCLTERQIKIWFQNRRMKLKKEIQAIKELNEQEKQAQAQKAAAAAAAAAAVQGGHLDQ
UniProt P29555: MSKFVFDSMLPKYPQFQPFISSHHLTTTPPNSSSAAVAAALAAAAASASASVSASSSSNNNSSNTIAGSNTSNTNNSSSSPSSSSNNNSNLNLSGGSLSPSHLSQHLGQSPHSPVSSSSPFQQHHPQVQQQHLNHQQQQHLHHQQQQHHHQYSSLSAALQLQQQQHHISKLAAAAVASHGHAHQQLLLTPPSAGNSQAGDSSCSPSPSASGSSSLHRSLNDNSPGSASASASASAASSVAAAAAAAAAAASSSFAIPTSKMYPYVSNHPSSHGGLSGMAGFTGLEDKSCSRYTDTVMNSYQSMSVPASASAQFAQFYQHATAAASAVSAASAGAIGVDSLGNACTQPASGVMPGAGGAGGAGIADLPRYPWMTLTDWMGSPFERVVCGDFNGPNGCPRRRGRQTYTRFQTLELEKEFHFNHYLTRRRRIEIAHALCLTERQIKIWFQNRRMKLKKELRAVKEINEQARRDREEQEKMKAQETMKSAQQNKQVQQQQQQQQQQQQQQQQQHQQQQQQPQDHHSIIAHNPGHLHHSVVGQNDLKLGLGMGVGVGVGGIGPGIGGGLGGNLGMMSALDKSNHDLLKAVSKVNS
UniProt P02833: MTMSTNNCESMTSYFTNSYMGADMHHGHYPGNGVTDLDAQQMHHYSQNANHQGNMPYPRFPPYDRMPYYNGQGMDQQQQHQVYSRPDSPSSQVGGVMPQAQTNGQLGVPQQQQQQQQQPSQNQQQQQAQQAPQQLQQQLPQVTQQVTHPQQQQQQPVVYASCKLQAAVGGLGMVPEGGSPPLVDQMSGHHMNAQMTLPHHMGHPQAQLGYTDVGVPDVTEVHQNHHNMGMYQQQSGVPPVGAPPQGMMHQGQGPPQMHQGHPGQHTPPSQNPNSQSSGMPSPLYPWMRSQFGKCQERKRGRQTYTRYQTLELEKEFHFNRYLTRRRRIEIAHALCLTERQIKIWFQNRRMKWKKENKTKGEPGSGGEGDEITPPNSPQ
UniProt P09632: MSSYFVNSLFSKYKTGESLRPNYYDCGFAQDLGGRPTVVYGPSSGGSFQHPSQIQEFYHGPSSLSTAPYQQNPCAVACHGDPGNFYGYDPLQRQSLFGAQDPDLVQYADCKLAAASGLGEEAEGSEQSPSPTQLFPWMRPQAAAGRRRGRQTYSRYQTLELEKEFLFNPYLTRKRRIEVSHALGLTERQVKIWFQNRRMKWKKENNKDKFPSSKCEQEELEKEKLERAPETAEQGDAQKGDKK
UniProt P20009: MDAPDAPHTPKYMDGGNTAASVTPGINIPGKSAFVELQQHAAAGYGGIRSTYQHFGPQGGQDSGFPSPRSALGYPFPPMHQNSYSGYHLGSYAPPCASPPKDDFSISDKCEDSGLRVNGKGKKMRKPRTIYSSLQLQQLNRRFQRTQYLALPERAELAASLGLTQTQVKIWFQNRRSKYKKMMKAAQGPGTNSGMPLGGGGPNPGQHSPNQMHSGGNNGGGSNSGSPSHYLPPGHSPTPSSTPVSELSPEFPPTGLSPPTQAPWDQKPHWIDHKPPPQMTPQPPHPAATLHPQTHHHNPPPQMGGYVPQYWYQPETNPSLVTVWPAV
UniProt P06602: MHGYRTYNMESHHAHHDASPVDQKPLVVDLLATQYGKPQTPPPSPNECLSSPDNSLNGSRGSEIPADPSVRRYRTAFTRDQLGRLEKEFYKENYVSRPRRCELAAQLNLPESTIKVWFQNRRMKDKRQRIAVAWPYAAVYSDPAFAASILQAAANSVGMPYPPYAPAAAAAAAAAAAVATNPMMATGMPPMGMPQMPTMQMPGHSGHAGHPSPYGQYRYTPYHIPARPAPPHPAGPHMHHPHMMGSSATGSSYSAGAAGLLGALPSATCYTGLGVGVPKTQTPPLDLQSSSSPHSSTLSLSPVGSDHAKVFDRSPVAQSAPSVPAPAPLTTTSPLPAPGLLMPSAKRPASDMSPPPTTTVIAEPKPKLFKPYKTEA
UniProt P07247: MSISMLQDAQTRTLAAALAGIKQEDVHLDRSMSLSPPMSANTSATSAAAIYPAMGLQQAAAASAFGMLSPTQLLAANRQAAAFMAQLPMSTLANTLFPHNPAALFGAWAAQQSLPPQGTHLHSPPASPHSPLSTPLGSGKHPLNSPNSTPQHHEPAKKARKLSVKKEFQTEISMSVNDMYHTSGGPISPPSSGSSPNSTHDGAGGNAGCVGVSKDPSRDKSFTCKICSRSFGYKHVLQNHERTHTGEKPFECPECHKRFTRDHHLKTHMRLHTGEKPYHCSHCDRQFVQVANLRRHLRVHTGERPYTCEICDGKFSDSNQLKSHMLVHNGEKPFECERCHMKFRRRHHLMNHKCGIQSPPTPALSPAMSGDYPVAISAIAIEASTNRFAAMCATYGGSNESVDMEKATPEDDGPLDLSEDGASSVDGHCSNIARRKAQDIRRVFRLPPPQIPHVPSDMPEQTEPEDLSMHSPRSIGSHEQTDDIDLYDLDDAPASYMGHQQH
UniProt P52168: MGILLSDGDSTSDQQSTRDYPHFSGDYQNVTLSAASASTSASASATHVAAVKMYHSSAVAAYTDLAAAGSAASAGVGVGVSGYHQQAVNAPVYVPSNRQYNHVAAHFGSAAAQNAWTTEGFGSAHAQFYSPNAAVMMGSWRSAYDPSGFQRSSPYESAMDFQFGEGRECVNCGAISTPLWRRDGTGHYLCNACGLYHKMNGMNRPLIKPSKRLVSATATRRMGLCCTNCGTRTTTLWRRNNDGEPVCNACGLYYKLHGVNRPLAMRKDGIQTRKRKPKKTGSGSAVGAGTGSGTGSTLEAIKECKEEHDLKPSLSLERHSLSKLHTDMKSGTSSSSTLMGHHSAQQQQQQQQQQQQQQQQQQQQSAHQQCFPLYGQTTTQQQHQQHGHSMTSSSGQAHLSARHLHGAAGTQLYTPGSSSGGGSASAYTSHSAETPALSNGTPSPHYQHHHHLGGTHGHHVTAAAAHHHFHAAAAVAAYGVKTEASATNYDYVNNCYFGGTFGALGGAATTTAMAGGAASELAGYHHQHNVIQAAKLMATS
UniProt P28159: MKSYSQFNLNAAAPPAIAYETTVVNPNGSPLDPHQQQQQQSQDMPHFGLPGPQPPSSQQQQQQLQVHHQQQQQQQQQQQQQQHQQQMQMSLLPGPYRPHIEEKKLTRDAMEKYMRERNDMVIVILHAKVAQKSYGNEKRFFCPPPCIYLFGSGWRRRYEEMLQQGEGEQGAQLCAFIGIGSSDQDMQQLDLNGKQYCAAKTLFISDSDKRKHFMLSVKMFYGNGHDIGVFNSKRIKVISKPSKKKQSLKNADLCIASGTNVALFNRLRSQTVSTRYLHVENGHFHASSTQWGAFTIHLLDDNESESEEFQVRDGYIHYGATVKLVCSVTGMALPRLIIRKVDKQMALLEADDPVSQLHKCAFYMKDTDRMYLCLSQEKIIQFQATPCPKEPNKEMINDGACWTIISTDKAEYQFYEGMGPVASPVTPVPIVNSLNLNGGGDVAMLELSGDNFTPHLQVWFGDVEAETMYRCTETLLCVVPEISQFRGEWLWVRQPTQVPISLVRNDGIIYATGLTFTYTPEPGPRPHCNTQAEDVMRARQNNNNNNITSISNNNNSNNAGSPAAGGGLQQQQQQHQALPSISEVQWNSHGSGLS

Substance: VN-Distal-less (from UniProt P20009 1-327)
binding [1]: no binding | binding [2]: no binding | binding [3]: no binding

binding [2]: no binding
Substance: VN-Even skipped (from UniProt P06602 1-376)

binding [4]: binds
Substance: VN-Kr (from UniProt P07247 1-502)

binding [5]: binds | binding [6]: no binding | binding [3]: no binding
Substance: VN-Pannier (from UniProt P52168 1-540)

binding [7]: no binding
Substance: VN-Suppressor-of-Hairless (from UniProt P28159 1-594)

Source: publication PMC4392834
